This note sets out measurements from article PMC3802552.

Amino acid sequences for entries named in this document (tags omitted).
UniProt O02482: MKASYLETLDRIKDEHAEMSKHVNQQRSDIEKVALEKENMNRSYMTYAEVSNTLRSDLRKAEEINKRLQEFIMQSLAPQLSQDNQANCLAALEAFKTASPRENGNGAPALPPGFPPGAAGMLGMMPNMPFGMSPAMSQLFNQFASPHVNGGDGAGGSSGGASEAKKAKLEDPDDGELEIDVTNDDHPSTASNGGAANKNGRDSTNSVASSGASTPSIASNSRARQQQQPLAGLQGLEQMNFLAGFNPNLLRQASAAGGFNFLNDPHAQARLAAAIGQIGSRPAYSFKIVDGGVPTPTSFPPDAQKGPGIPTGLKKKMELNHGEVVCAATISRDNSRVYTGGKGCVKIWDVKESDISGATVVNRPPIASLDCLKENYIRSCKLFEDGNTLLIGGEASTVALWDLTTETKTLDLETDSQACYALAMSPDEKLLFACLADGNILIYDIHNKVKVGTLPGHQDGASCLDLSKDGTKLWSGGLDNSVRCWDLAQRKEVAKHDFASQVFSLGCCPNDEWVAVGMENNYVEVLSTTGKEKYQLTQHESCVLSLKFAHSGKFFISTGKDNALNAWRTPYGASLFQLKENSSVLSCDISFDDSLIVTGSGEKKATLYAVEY

Residue numbers refer to the chain shown, from its start. No constants are given. Whether binding was seen depends on the method and setting. Some binding calls cover weakened binding; strength is not graded here.

Assay [1] deals with T1, TBX-2^LKIE/VKKE→AAAA double mutant, two-hybrid bait (C. elegans) (UniProt Q19691).
T1 sequence: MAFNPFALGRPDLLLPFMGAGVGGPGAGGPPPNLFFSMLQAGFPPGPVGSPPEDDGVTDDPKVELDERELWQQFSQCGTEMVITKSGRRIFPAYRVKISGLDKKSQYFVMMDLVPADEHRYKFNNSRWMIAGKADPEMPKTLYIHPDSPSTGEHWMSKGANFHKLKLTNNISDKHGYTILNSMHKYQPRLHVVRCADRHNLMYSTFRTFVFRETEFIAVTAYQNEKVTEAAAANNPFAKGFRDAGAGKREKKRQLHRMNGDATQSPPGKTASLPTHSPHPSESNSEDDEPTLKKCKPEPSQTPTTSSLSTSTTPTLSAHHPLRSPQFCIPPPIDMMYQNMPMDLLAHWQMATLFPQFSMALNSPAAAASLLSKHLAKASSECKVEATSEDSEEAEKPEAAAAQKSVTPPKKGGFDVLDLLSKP
Description: two-hybrid; yeast two-hybrid of wild-type and mutant TBX-2 with UNC-37 as a control for expression; further format not told (Supplementary Figure 1).

In assay [2] the target is T2, TBX-2^LKIE→AAAA, two-hybrid bait (C. elegans) (UniProt Q19691).
T2 sequence: T1 sequence with A399V, A400K, A401K, A402E
The description is as above.

Assay [3] deals with T3, TBX-2^VKKE→AAAA, two-hybrid bait (C. elegans) (UniProt Q19691).
T3 sequence: T1 sequence with A230L, A231K, A232I, A233E
Described as above.

Assay [4] addresses T4, TBX-2 (C. elegans T-box factor), wild type, two-hybrid bait (C. elegans) (UniProt Q19691).
T4 sequence: T1 sequence with A230L, A231K, A232I, A233E, A399V, A400K, A401K, A402E
Described as above.

Assay [5] deals with T1, TBX-2^LKIE/VKKE→AAAA double mutant, two-hybrid bait (C. elegans). Description: two-hybrid; L40 yeast with HIS3 and lacZ reporters regulated by LexA binding sites; TBX-2 baits in pLexA-NLS, UBC-9 prey in pACT; scored in plate assays for histidine prototrophy and ß-gal expression, level quantified by ß-gal activity (n = 7, three independent experiments).
In assay [6] the target is T4, TBX-2 (C. elegans T-box factor), wild type, two-hybrid bait (C. elegans). The assay is described as above.

Regarding “UNC-37 (Groucho-family co-repressor) (from UniProt O02482 1-612)”, the binding entry in assay [1], in assay [2], in assay [3] and in assay [4] was “binds” each time.

B1: UBC-9 (E2 SUMO-conjugating enzyme), two-hybrid prey (enzyme, UniProt Q95017 1-166)
chain: MSGIAAGRLAEERKHWRKDHPFGFIAKPVKNADGTLNLFNWECAIPGRKDTIWEGGLYRIRMLFKDDFPSTPPKCKFEPPLFHPNVYPSGTVCLSLLDENKDWKPSISIKQLLIGIQDLLNHPNIEDPAQAEAYQIYCQNRAEYEKRVKKEAVKYAAELVQKQMLE
B1: the binding entry in assay [5] is “no binding”; in assay [6], “binds”.
